Data as given in publication PMC12667544.
For at least one entry, the source does not settle the construct or the ends of the probe. For part of these data: A weaker result is weaker than the reference pair of the same experiment.

The chains behind the UniProt entries cited, without tags or fusion partners. Where a name states a change or a piece, a line headed by the entry shows the natural chain unless it says otherwise.
UniProt Q61321: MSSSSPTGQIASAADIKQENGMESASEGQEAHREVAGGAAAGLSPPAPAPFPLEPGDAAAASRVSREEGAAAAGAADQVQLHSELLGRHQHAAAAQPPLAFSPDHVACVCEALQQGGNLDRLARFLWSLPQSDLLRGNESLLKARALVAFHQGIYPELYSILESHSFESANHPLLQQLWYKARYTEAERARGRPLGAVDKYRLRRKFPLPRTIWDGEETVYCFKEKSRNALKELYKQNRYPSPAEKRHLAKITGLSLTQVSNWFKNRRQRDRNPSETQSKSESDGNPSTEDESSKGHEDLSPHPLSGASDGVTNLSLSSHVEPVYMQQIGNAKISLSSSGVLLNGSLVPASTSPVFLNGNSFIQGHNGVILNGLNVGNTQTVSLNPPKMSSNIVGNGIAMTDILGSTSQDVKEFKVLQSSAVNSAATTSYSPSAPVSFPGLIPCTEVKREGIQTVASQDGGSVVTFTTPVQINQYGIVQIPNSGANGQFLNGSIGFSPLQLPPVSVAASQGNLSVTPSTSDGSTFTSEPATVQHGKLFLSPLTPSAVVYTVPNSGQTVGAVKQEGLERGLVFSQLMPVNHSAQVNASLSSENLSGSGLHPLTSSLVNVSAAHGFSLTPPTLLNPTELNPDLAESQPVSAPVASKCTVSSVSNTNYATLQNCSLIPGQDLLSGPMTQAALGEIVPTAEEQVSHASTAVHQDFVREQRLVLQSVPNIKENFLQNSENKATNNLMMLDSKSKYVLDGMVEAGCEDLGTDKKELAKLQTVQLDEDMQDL

Legend:
[1] = biological target: His-SIX4 (Mus musculus) (UniProt Q61321); test: competition EMSA; conditions: unlabeled, EMSA: 1 uM labeled probe, 0.5-4 ug His-SIX4 in 10 uL (Beyotime kit buffer, salt not stated), 25 C, 20 min, 4% native PAGE, 0.5x TBE pH 8.0, recombinant protein, protein details: His
[2] = biological target: His-SIX4 (Mus musculus) (UniProt Q61321); test: EMSA; conditions: EMSA: 1 uM labeled probe, 0.5-4 ug His-SIX4 in 10 uL (Beyotime kit buffer, salt not stated), 25 C, 20 min; 4% native PAGE, 0.5x TBE pH 8.0; recombinant protein; protein details: His; label: 5' biotin

## GAGACCAGGCTAGTTGCAGCCTCGATGACTACCGACCTCTAATGCCTAAT (double strand) [Rps27l-Mut (unlabeled mutant competitor)]
[1]; added before labeled N1, signal decreased only
  binding result: binds more weakly

## GAGACCAGGCTAGTTGCAGCCTCGGGTCTGGTTTCCCTCTAATGCCTAAT (double strand) [Rps27l-Cold (unlabeled competitor)]
[1]; added before labeled N1, signal disappeared
  binding result: binds

## GAGACCAGGCTAGTTGCAGCCTCGGGTCTGGTTTCCCTCTAATGCCTAAT (double strand) [Rps27l-biotin (wild-type probe)]
[2]
  binding result: binds
